Experimental data as given in patent publication US20140134179A1.
Results are given in words; binding and its absence hold for the method and conditions named. Some entries that bind do so weakly or less than the wild type.

Chains of the proteins cited; added tags and fusions are not shown. Lines headed by an entry give the natural chain unless they say otherwise; changes in a name come on top.
UniProt Q9H6X2: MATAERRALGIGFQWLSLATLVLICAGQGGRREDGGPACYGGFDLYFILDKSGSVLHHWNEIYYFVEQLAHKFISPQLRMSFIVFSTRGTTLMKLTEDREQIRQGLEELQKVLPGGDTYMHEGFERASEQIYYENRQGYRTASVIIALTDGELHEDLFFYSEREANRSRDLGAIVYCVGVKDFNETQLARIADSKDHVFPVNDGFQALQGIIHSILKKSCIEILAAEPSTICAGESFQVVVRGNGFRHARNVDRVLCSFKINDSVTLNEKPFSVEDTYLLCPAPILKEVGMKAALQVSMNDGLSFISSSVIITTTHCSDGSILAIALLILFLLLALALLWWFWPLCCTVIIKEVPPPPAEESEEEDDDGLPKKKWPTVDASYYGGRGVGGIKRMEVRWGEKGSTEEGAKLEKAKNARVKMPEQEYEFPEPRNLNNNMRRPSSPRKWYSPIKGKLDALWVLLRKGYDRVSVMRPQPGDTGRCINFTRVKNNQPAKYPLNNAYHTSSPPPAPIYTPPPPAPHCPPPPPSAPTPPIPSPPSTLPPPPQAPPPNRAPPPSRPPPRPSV

Experiments:
[1] = target: human TEM8 on CHO cells (CHO-TEM8) (human) (UniProt Q9H6X2); assay: flow cytometry on CHO-TEM8 cells (FIG. 2B)
[2] = target: flag-tagged human TEM8 on 293 cells (293/Flag-hTEM8) (human) (UniProt Q9H6X2); assay: flow cytometry on 293/Flag-hTEM8 cells, FITC anti-mouse secondary (FIG. 9B)
[3] = target: flag-tagged human TEM8 on 293 cells (293/Flag-hTEM8) (human) (UniProt Q9H6X2); assay: screens of Example 4 (flow cytometry on TEM8 transfectants)
[4] = target: flag-tagged human TEM8 on 293 cells (293/Flag-hTEM8) (human) (UniProt Q9H6X2); assay: same screens as for the Fabs (FIG. 2A-D)

binding [1]: binds
binding [2]: binds
binding [3]: binds
binding [4]: binds
B1: L5-mIgG2a (antibody, V domains shown)
VH: QVQLVESGGGLVQPGGSLRLSCAASGFTFNSYGLSWVRQAPGKGLEWVSNISSNGSYTYYADSVKGRFTISRDNSKNTLYLQMNSLRAEDTAVYYCARAGYGLFDVWGQGTLVTVSS
VL: DIELTQPPSVSVAPGQTARISCSGDKLREYYVHWYQQKPGQAPVLVIYGDNKRPSGIPERFSGSNSGNTATLTISGTQAEDEADYYCSSWAGSRSGTVFGGGTKLTVL
